Reference: PubChem BioAssay AID2685 (National Center for Advancing Translational Sciences (NCATS), 2010)
Some of the results follow. Further columns of the screen follow, without active or inactive calls. Compounds called inactive in the main read-out are mostly missing here. The note in brackets gives the kind of curve behind each potency; many fits are weak.

Assay: qHTS Assay for Lipid Storage Modulators in Drosophila S3 Cells;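 on cell number change: cells counted by Cell Tracker Red CMTPX staining in the red channel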
Details: BODIPY lipid droplet fluorescence, 18-24 h; for cell number change: measured here: cell count max response, cells fed with added oleic acid
In short: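 Drosophila S3 cells loaded with oleic acid (400 uM, as added) and compounds at several concentrations; lipid droplets imaged by 488-nm laser-scanning cytometry, 500–530 nm intensity and object ratio to cell channel. Percent activity normalized to 20 uM Triacsin C.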

[1] = measured here: cell number channel AC50, cells fed with added oleic acid
[2] = measured here: lipid fluorescence (Fed channel) AC50, cells fed with added oleic acid

COc1ccccc1CN1C(=O)[C@@H]2C(CCC(N)=O)NC3(C(=O)Nc4c3ccc(Cl)c4C)[C@@H]2C1=O (stereo not given in full)
cell number change: 30.4%
AC50 [1]: 2.59 µM [rising, partial curve]
AC50 [2]: 8.2 µM [rising, partial curve]

O=C(CC(Nc1ccccc1Cl)C(=O)O)c1ccccc1 (stereo not given)
cell number change: -5.51%

CC(=O)Nc1nonc1NC(=O)CSC1=NCCS1
cell number change: 11.4%
AC50 [2]: 0.92 µM [rising, full curve, poor fit]

Cc1cccc(C)c1NC(=O)CSCc1cccc(CSCC(=O)Nc2c(C)cccc2C)n1
cell number change: 3.91%
AC50 [2]: 6.51 µM [falling, single point]

CCN1CCN(c2ccc(NC(=O)c3ccc4c(c3)OCCO4)cc2C)CC1
cell number change: -9%

CC1=CC(C)(C)N(S(=O)(=O)c2ccc(C)cc2)c2ccccc21
cell number change: 7.62%
AC50 [2]: 0.116 µM [rising, full curve]

Cn1c(=O)c2ccccc2n2c(CCl)nnc12
cell number change: 10.5%

CCC(=O)Nc1ccc(C(=O)NNC(=O)C(c2ccccc2)c2ccccc2)cc1
cell number change: -34.8%
AC50 [1]: 14.6 µM [falling, single point]
AC50 [2]: 29.1 µM [falling, single point]

Cn1c(SCC(=O)Nc2nccs2)nnc1-c1ccc(S(=O)(=O)N2CCCC2)cc1
cell number change: 35.5%
AC50 [1]: 6.51 µM [rising, full curve, poor fit]
AC50 [2]: 14.6 µM [falling, partial curve, poor fit]

Fc1ccc(SCCc2ccccn2)cc1
cell number change: 18%
AC50 [2]: 0.82 µM [rising, full curve, poor fit]

CCOc1ccc(S(=O)(=O)NCCC(=O)NCC2(N3CCCCC3)CCCCC2)cc1
cell number change: -24.8%

C=CCOC(=O)Cn1cnc2c(sc3nc(C)cc(C)c32)c1=O
cell number change: -26.3%

Cc1ccc(NC(=O)CSc2nccn2C)cc1F
cell number change: 7.57%

CC1=C(C(=O)Nc2ccccc2)C(c2ccncc2)C(C#N)=C(SCC(=O)Nc2ccccc2)N1 (stereo not given)
cell number change: 62.1%
AC50 [1]: 0.0103 µM [rising, full curve, poor fit]

CCN(C1CCCCC1)S(=O)(=O)c1ccc(C(=O)O)cc1
cell number change: -98.8%
AC50 [1]: 29.1 µM [falling, single point]

CCCOc1ccc(C(=O)NC(C)C(=O)O)cc1 (stereo not given)
cell number change: 40.9%
AC50 [1]: 14.6 µM [rising, partial curve, poor fit]

COc1ccccc1-c1nnc2sc(COc3ccc(Cl)cc3Cl)nn12
cell number change: 1.3%
AC50 [2]: 2.59 µM [rising, single point]

COc1ccc(C2c3c4c(n(C)c3CCN2C)CCN(C)C4c2ccc(OC)cc2)cc1 (stereo not given)
cell number change: 17.5%
AC50 [2]: 4.11 µM [falling, single point]

COc1ccnc(N=CNOCc2cccc(Cl)c2Cl)c1C#N
cell number change: 80.8%
AC50 [2]: 1.64 µM [rising, full curve]

COc1cc(C(=O)OCC(=O)NCCN2C(=O)CSC2=O)ccc1OCc1c(C)noc1C
cell number change: -20.4%
AC50 [2]: 0.58 µM [falling, single point]

COCCN(C(=O)CSc1nc2ccccc2c(=O)n1CC(C)C)c1c(N)n(Cc2ccccc2)c(=O)[nH]c1=O
cell number change: -29.8%
AC50 [2]: 29.1 µM [falling, single point]

CN(Cc1ccco1)C(=O)C1CCN(c2nnc(-n3cccc3)s2)CC1
AC50 [2]: 3.26 µM [rising, partial curve]

CC(C)CNS(=O)(=O)c1ccc(CCC(=O)NC2CCCC2)cc1
cell number change: 46.5%
AC50 [2]: 16.4 µM [rising, partial curve]

O=C(O)c1ccc(OC2CSC2)cc1
cell number change: 10.2%
AC50 [2]: 0.082 µM [falling, full curve, poor fit]

CC(C)=CC(=O)Nc1ccccc1C(N)=O
cell number change: 0.963%
AC50 [1]: 0.0517 µM [falling, partial curve, poor fit]

CCOC(=O)c1[nH]c(C)c(C(=O)OCc2ccc(C)cc2)c1C
cell number change: -12.4%
AC50 [2]: 6.51 µM [rising, partial curve]

O=C(CSc1ccccc1)Nc1ccccc1C(=O)N1CCCC1
cell number change: 7.28%

CCOc1ccc(NC(=O)CCN2C(=O)c3ccccc3C2=O)cc1
cell number change: 38.5%
AC50 [1]: 29.1 µM [rising, single point]
AC50 [2]: 6.51 µM [rising, partial curve, poor fit]

CC(=O)c1ccc(NC(=S)NCC(c2ccco2)N2CCCC2)cc1 (stereo not given)
cell number change: 51.9%
AC50 [1]: 6.51 µM [rising, full curve]

O=C(c1ccc2c(c1)N(Cc1ccc(F)cc1)C(=O)c1ccccc1S2(=O)=O)N1CCN(c2ccccn2)CC1
cell number change: 18.8%
AC50 [2]: 1.46 µM [falling, partial curve]

CCCC1=C(C(=O)OCC)C(c2cccs2)C(C#N)=C(N)O1 (stereo not given)
cell number change: -29.4%
AC50 [2]: 23.1 µM [falling, single point]

Cc1c(O)ccc(/C=N/Nc2nc(-c3cccnc3)nc3ccccc23)c1O
cell number change: -52.2%
AC50 [1]: 16.4 µM [falling, single point]
AC50 [2]: 16.4 µM [falling, partial curve]

CCc1cccc(NS(=O)(=O)c2ccc3c(c2)N(C)CCO3)c1
cell number change: -36.6%
AC50 [1]: 4.11 µM [falling, partial curve]

Cc1cccc(C)c1N(C(=O)c1ccco1)C(C(=O)NC1CCCC1)c1ccncc1 (stereo not given)
cell number change: -3.17%
AC50 [2]: 29.1 µM [rising, single point]

COc1ccc(N(CC(=O)N2CCc3ccccc3C2)S(C)(=O)=O)cc1Cl
cell number change: 0.794%
AC50 [2]: 0.206 µM [rising, full curve]

Cc1ccc(N2CC(=O)N(NC(=O)c3sc4nc(C)cc(C)c4c3N)CC2=O)cc1
AC50 [2]: 3.66 µM [rising, single point]

Cc1cc(C(=O)NNC(=O)C2CCCC2)c(C)o1
cell number change: -2.69%
AC50 [1]: 6.51 µM [rising, single point]
AC50 [2]: 6.51 µM [rising, single point]

O=C(NNc1cc(N2CCOCC2)nc(N2CCOCC2)n1)c1ccc(Cl)c(Cl)c1
cell number change: 64%
AC50 [1]: 29.1 µM [rising, single point]
AC50 [2]: 0.291 µM [rising, full curve, poor fit]

O=C1c2cccnc2C(=O)N1Cc1ccc(S(=O)(=O)N2CCOc3ccc(Cl)cc32)cc1
cell number change: 18.9%
AC50 [2]: 29.1 µM [rising, partial curve]

CN(C)C(=O)c1ccccc1Sc1ccc(Cl)cc1Cl
AC50 [1]: 0.058 µM [falling, full curve, poor fit]
AC50 [2]: 0.411 µM [rising, full curve, poor fit]

O=C(Nc1ccccc1)Nc1nnc(CSCc2ccccc2Cl)s1
cell number change: -33.5%
AC50 [1]: 14.6 µM [falling, single point]
AC50 [2]: 13 µM [falling, single point]

Cc1ccc(NS(=O)(=O)c2ccc(C(=O)NCC3CCCO3)cc2)cc1 (stereo not given)
cell number change: 53.8%
AC50 [1]: 2.91 µM [rising, partial curve]
AC50 [2]: 1.64 µM [rising, partial curve]

O=C(NC1CCCC1)C(c1cccnc1)N(C(=O)c1ccco1)c1ccc(F)cc1 (stereo not given)
cell number change: 6.94%

C/C(=N\NC(=O)C1CC1c1ccccc1)c1cccc([N+](=O)[O-])c1 (stereo not given)
cell number change: -95.7%
AC50 [1]: 32.6 µM [falling, partial curve, poor fit]

Cc1ccc(-c2nnc(N(C)C(=O)c3cccnc3)s2)cn1
cell number change: 105%
AC50 [1]: 6.51 µM [rising, partial curve]
AC50 [2]: 1.84 µM [rising, partial curve]

Cc1cc(=O)oc2cc(OCC(=O)Nc3ccccc3C(N)=O)c(Cl)cc12
cell number change: -0.382%
AC50 [1]: 3.26 µM [falling, partial curve, poor fit]
AC50 [2]: 10.3 µM [falling, partial curve]

CCc1cccc2c(=O)c(C(=O)N3CCOCC3)c[nH]c12
cell number change: -31.2%
AC50 [1]: 0.461 µM [falling, full curve]
AC50 [2]: 0.231 µM [falling, partial curve]

O=C(CSc1n[nH]c(-c2ccc(S(=O)(=O)N3CCCCC3)cc2)n1)Nc1nccs1
cell number change: -26.9%
AC50 [2]: 23.1 µM [falling, single point]

COc1ccc(-c2nc(N)ncc2-c2ccc(Cl)cc2)c(O)c1
cell number change: 12.8%
AC50 [2]: 16.4 µM [rising, single point]

Cc1ccsc1-c1cc(C(=O)O)c2c(ccc3ccccc32)n1
cell number change: 12.6%
AC50 [2]: 29.1 µM [rising, single point]

COc1ccc2c(c1)-c1nc(NC(=O)c3cccs3)sc1CC2
cell number change: 6.98%
AC50 [2]: 18.4 µM [falling, partial curve]

COCC(=O)Nc1c(C(=O)Nc2cccc(OC)c2)oc2ccccc12
AC50 [2]: 1.3 µM [rising, full curve]

CC1CCCCN1C(=O)c1ccc(CS(=O)(=O)Cc2ccccc2)cc1 (stereo not given)
AC50 [2]: 1 µM [rising, partial curve]

c1ccc(-c2nc(Sc3ncnc4c3cnn4-c3ccccc3)n[nH]2)cc1
cell number change: -1.36%

Cc1ccc2c(c1)CCCN2C(=O)c1c(C)noc1C
cell number change: -37.9%
AC50 [1]: 14.6 µM [falling, single point]

CN1CCN(C(=S)c2cn(Cc3cccc(F)c3)c3ccccc23)CC1
AC50 [1]: 6.51 µM [rising, single point]

Cc1ccc(-c2noc(CCC(=O)NCC3CCCO3)n2)cc1 (stereo not given)
AC50 [2]: 3.66 µM [falling, partial curve]

CCCn1c(C(C)Nc2nc(-c3ccc(C)cc3)cs2)nc2ccccc21 (stereo not given)
cell number change: 7.44%

CC(C)(C)c1ccc(C(=O)N2CCC(NC(=O)c3ccccc3)CC2)cc1
cell number change: -14.8%
AC50 [2]: 11.6 µM [falling, partial curve, poor fit]

O=C1c2ccccc2C(=O)N1CCCCCc1nc(-c2ccccc2)no1
AC50 [2]: 0.58 µM [rising, single point]
